Reference: PubChem BioAssay AID2685 (National Center for Advancing Translational Sciences (NCATS), 2010)
The campaign covered roughly 320,000 compounds. About 2,100 (0.66%) were called active. The inconclusive results got no clear call from the source; some entries with a clear call stand among them for comparison. The call rests on the fitted dose curve; in most records, active means well fitted inhibition curve with a large enough effect in the signal ratio, with a control signal flat (not every such curve was filed as active); inconclusive means small, poorly fitted or top-dose-only effect, or effect the other way, or a change in a side signal; inactive means flat fitted curve, though single readings scatter; the % refers to the signal ratio. Potencies beside an inconclusive call are fits to weak or partial responses and may not hold up.

Experiment: qHTS Assay for Lipid Storage Modulators in Drosophila S3 Cells
Settings: BODIPY lipid droplet fluorescence, 18-24 h, cells fed with added oleic acid; lipid storage change, negative = inhibition: at 46.1 µM (top of the series) unless noted
Summary of the method: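 Drosophila S3 cells got compounds at several concentrations plus oleic acid (400 uM solution). Laser-scanning cytometry with 488 nm excitation read lipid droplets at 500-530 nm and cells at 575-640 nm. Percent activity was relative to 20 uM Triacsin C.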
On the % scale 0 is the no-effect control and ±100 the full control effect; potency means the concentration at half of the fitted maximal effect.

Potency, active:
COC(=O)c1cc(C)sc1NC(=O)CC1Nc2ccccc2NC1=O (configuration not stated) 16.4 µM

Potency, inconclusive:
CCOC(=O)Cn1ccc(NC(=O)COc2ccc(F)cc2F)n1 9.2 µM [activator, partial curve, poor fit], CCCc1cc(=O)n2[nH]c(C(F)(F)F)nc2n1 6.51 µM [falling, single point], COc1ccc(NC(=O)C(NCC(C)C)c2ccccc2)cc1Cl (configuration not stated) 1.84 µM [activator, full curve, poor fit], O=C(Nc1ccccc1)c1ccc(NCC2CCCO2)c(S(=O)(=O)N2CCOCC2)c1 (configuration not stated) 20.6 µM [falling, single point], CC(C)c1ccc(C2/C(=C(/O)c3ccccc3)C(=O)C(=O)N2CCCN2CCOCC2)cc1 (configuration not stated) 32.6 µM [falling, partial curve, poor fit], CCOC(=O)C1(Cc2cccc(F)c2)CCN(Cc2ccon2)CC1 0.82 µM [falling, full curve, poor fit], CC(C)(C)Nc1nc(N2CCCC2)nc(N2CCCC2)n1 2.06 µM [falling, partial curve, poor fit], O=C(c1ccccc1-c1nc(-c2ccc(Cl)cc2)no1)N1CCCC1 0.13 µM [rising, single point], COCCN(CC1CCCN(C2Cc3ccccc3C2)C1)C(=O)c1cccs1 (configuration not stated) 29.1 µM [activator, single point], COc1ccc(CN(C)C(=O)c2ccccc2OCc2c(C)noc2C)cc1OC 0.411 µM [falling, full curve], Cc1sc2nc(C)n(/N=C/c3ccccc3)c(=O)c2c1C 14.6 µM [activator, partial curve, poor fit], O=C(COC(=O)C1C2CC3OC(=O)C1C3C2)Nc1ccc(F)cc1 (configuration not stated) 3.66 µM [falling, single point], Cc1nc2ccccc2n1CC(O)COc1ccccc1Cl (configuration not stated) 6.51 µM [rising, single point]

Lipid storage change, negative = inhibition, inactive:
Cc1ccc(NC(=O)c2cn(CCC#N)nc2-c2cccs2)c([N+](=O)[O-])c1 -1.84%, CC(C)c1ccc2[nH]c3nc(SCC(=O)N4CCOCC4)nnc3c2c1 -0.666%, NS(=O)(=O)c1ccc(CNC(=S)NC2CCCCC2)cc1 -3.85%

Lipid storage change, negative = inhibition, inconclusive:
CCC(C)(C)NC(=O)CN(C(=O)C(=O)Nc1ccc2c(c1)OCCO2)N1CCOCC1 0.889%, Cc1cccc(C(=O)Nc2nsc(N)n2)c1 22%, FC(F)(F)c1nc2ccccc2c2nc3ccccc3n12 5.69%, CCOc1ccc(C(=O)NC(C(=O)N2CCC2)C(C)C)cc1 (configuration not stated), CC1CC(C)CN(C(=O)COC(=O)c2ccc3c(c2)C(=O)N(Cc2ccco2)C3=O)C1 (configuration not stated) 31.1%, NNC(=O)c1ccccc1OCCOc1ccccc1 -20.5%, CCC(C)(CC(=O)N(C)CCC#N)c1ccccc1 (configuration not stated) 5.07%, CC(C)(C)c1ccccc1OCCCCN1CCCC1 4.22%, CCC(=O)c1ccc(OCC(O)CN2CC(C)OC(C)C2)cc1 (configuration not stated) -1.52%, O=[N+]([O-])c1ccc(Sc2cc[n+]([O-])c3ccccc23)c([N+](=O)[O-])c1 5.81%, Cc1ccc(NC(=O)Cc2nnc(SCC(=O)c3ccc(Br)cc3)n2C)cc1Cl 41%, Cc1ccc(-c2nc(-c3ccccn3)sc2CC(=O)O)cc1 26%, CCOC(=O)c1nc(N/N=C/c2ccccc2)sc1Br -11.1%, COc1ccc(N/N=C(C)/C(=N/O)C(=O)Nc2ccccc2)cc1 81.8%, COc1ccccc1C(=O)Nc1ccccc1C(=O)N1C(C)CCCC1C (configuration not stated) 16.2%, CCN(CC(=O)Nc1ccc(OC)cc1)CC(=O)Nc1sc2c(c1C(=O)OC)CCCC2 -100%, O=C(c1ncc[nH]1)c1ccco1 -2.74%, CCS(=O)(=O)Nc1cccc(C2=NN(S(=O)(=O)c3ccc(F)cc3)C(c3cccs3)C2)c1 (configuration not stated) 38.3%, ONc1cccnc1-n1nc(C(F)(F)F)cc1C(F)(F)F -18.2%, COCCCN(C(=S)Nc1c(C)cc(C)cc1C)C(C)c1ccncc1 (configuration not stated) 8.77%, COc1ccc(C2CC(c3ccccc3)n3nc(NC(=O)c4cccs4)nc3N2)cc1 (configuration not stated) -3.26%, Cc1ccc(NS(=O)(=O)c2cccc(C(=O)NCC3(N(C)C)CCCCC3)c2)cc1 13.5%, Cc1ccc(NC(=O)C2COc3ccccc3O2)cc1C (configuration not stated) 31.8%, CC1(C)Oc2ccc3ccc(=O)oc3c2/C(=C/Nc2cccc(O)c2)C1=O -1.49%, S=C(NCc1ccc(Cl)cc1)Nc1ccncc1 -100%, COc1cccc(C(=O)Nc2nc(C)cs2)c1 -3.19%, O=C(O)c1ccc(NC(CSCc2cccc(F)c2)C(=O)O)c([N+](=O)[O-])c1 (configuration not stated) -11.4%, Cc1ccc(C(C)C)c(OCCCN2CC(C)OC(C)C2)c1 (configuration not stated) 48.8%, Cc1ccc(N/C=C/C(=O)c2sc(-c3ccccc3)nc2C)cc1 46.3%, COc1cccc(NC(=O)CN2C(=O)CSc3ccc(S(=O)(=O)N4CCOCC4)cc32)c1 6.05%, CCOC(=O)c1c(NC(=O)COC)sc(C)c1C -6.2%, CCCC(c1nnnn1Cc1ccc(OC)cc1)N1CCC(C(N)=O)CC1 (configuration not stated) 3.23%, Oc1ccccc1N1CCN(c2ccc3ccccc3n2)CC1 203%, Cc1ccc(S(=O)(=O)NCC(c2ccccc2)N2CCN(CCC#N)CC2)cc1 (configuration not stated) 21.5%, CCOc1ccc(NC(=O)CC(NCc2ccccn2)C(=O)O)cc1 (configuration not stated) -10.9%
